# From paper PMC7917092
# For at least one entry, the source does not settle the construct or the ends of the probe. For part of these data: No signal at the amounts used counts as a negative. Tags and fusion partners may be left off the protein sequences shown.
# Columns and labels:
# VvMYB14 [1] = biological target: T1, VvMYB14 (UniProt A8VPW3); test: EMSA; conditions: EMSA kit (Thermo Fisher Scientific) per manual; pH and temperature not stated; recombinant protein; protein details: His (pEASY-E1); label: biotin
# T1 sequence (looked up, limits assumed): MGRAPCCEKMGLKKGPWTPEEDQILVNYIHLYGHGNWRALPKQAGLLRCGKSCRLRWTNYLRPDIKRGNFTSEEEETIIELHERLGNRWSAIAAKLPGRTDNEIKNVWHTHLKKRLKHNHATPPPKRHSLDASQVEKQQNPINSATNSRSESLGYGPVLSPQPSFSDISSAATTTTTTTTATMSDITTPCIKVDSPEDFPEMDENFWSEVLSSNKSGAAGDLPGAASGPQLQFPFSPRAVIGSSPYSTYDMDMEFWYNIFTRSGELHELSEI
# VvMYB14 [2] = biological target: T1, VvMYB14; test: competition with a labelled probe; conditions: EMSA kit (Thermo Fisher Scientific) per manual, pH and temperature not stated, recombinant protein, protein details: His (pEASY-E1)
sequence,measurement,setting,value
CATGTCCCTGTGAACCTAACGTAAGGCA (double strand) [MBS probe (VvACS1 promoter)],binding result,VvMYB14 [1],binds
CATGTCCCTGTGAACCTAACGTAAGGCA (double strand) [MBS unlabeled competitor],binding result,VvMYB14 [2]; increasing unlabeled competitor gradually reduced binding of labeled MBS probe,binds
CATGTCCCTGTGTACATATCGTAAGGCA (double strand) [mutant MBS probe / competitor],binding result,"VvMYB14 [2]; mutated competitor did not compete with labeled MBS probe, label: biotin when used as probe, unlabeled as competitor",no binding
